Experimental data: publication PMC5589557
These are yes or no findings as the source states them, for the method shown. In cells and extracts the contact can be indirect. Some results given as binding are weak or reduced against the parent protein; the word gives no strength.

Protein sequences, listed by entry. Tags and fused reporters are not part of them.
UniProt P08047: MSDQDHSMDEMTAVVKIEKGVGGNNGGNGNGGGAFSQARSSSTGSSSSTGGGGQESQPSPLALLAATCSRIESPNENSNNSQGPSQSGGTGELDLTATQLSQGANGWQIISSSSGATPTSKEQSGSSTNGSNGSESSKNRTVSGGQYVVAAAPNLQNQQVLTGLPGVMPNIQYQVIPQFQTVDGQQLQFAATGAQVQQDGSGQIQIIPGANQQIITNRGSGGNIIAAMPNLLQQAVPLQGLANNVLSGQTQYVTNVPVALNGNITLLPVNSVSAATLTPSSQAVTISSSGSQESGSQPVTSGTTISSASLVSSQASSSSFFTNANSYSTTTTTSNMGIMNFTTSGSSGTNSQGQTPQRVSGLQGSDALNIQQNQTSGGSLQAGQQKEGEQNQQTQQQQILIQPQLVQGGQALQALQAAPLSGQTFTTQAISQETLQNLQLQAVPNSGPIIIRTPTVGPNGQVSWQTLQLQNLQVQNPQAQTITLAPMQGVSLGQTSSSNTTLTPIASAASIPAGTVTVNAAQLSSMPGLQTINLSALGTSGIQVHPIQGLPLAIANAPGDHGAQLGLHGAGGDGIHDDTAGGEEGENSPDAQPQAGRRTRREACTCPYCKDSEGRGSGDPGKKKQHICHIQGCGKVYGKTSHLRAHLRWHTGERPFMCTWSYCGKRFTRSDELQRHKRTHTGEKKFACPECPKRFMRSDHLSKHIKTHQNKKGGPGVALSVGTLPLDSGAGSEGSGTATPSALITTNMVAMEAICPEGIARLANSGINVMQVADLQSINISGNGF
UniProt Q01196: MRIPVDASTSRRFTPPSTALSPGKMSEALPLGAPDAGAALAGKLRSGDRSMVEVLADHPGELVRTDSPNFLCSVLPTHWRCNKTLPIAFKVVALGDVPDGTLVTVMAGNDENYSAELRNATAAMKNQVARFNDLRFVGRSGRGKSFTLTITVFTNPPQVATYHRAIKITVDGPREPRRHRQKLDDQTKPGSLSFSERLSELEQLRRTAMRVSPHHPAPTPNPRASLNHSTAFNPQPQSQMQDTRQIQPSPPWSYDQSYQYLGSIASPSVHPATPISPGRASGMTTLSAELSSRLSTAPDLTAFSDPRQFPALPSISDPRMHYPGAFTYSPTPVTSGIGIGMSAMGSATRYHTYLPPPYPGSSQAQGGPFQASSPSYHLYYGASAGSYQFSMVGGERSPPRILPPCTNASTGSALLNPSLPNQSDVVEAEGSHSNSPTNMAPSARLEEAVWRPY
UniProt P23769: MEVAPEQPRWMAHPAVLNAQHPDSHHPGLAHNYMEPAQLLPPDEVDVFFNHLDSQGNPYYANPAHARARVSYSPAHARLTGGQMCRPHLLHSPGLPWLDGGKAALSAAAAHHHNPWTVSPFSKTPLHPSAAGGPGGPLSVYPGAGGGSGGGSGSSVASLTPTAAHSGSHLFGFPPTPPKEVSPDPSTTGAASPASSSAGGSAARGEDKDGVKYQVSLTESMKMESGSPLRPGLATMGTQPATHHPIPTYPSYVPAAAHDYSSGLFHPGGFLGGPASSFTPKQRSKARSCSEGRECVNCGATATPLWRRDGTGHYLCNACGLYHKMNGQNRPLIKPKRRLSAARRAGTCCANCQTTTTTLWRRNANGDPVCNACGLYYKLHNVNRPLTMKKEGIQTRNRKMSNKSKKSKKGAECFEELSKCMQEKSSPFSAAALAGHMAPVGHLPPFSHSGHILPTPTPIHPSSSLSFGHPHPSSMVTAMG
UniProt P01106: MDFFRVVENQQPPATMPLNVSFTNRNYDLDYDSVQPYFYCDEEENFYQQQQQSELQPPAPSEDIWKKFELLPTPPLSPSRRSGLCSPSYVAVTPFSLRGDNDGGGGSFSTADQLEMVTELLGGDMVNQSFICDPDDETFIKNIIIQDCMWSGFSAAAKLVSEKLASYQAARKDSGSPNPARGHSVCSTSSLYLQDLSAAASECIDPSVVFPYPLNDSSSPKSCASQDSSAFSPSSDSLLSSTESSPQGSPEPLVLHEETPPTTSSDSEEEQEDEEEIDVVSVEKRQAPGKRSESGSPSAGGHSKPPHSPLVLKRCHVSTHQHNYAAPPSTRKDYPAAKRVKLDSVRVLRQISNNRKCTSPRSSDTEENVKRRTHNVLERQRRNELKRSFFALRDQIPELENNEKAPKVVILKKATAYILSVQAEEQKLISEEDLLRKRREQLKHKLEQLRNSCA

Tests used:
Test in all cases: co-IP; endogenous proteins of HL-60 and HEL lysates; 1 mg protein with 5 ug antibody (anti-SP1, anti-RUNX1 or anti-GATA2) crosslinked to protein A/G-Dynabeads; co-IP buffer (PBS, 0.5% Triton X-100, 1 mM EDTA); irrelevant IgG as control; Western blot; anti-RUNX1 IP also in cells 48 h after siRNA against MYC or scramble siRNA
[1] = biological target: SP1 (human (endogenous in HL-60 and HEL)) (UniProt P08047)
[2] = biological target: RUNX1 (human (endogenous in HL-60 and HEL)) (UniProt Q01196)
[3] = biological target: GATA2 (human (endogenous in HL-60 and HEL)) (UniProt P23769)

For “MYC (from UniProt P01106 1-454) (other; other documents disagree on this pair)”, the binding [1] was “binds”.

With SP1 (from UniProt P08047 1-785) the binding [2] was “binds” and the binding [3] was “binds”.

For GATA2 (from UniProt P23769 1-480), the binding [2] was “binds”.

In the case of MYC (from UniProt P01106 1-454), the binding [2] was “binds” and the binding [3] was “binds”.
